# Data reported in PubChem BioAssay AID1259415 (National Center for Advancing Translational Sciences (NCATS), 2018).
# Screen size: about 410,000 compounds; about 18,000 (4.4%) were called active. Inconclusive results, whose numbers are uncertain, are shown with a selection of clear calls. Rule as the data show it: active = activity change below about -60%; inconclusive = no clear call, values can overlap the other calls; inactive = above about -39%.
# Assay: qHTS Assay for inhibitors of the human cytomegalovirus (HCMV)
# Conditions: HFF cells, HCMV-luciferase reporter, 72 h; at 57.5 µM; hits give low values
# In short: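 Screen run at 2 compound doses on HFFs infected with reporter HCMV, MOI 1 PFU/cell. Luciferase activity from cell lysates at 72 h post infection gave inhibition relative to buffer-only and Salinomycin wells.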
# % is scaled to controls: 0 for no effect and ±100 for the full control effect.
row,Structure (SMILES),"activity change, negative = inhibition"
1,O=C(COC(=O)C1CC1)Nc1ccc2c(c1)OCO2,active: -97.8%
2,COc1cccc(-c2cnc3c(NC(C)=O)cc(-c4cccc(C(=O)NCCO)c4)cn23)c1,inconclusive: -57.5%
3,[O-]/[N+](=C\c1ccc(F)cc1)c1ccccc1,inconclusive: -50%
4,CCOC(=O)c1c(N)c(C#N)cn1-c1ccccc1,inactive: 17.8%
5,CN(c1ncnc2c1c(-c1ccccc1)cn2-c1ccc(F)cc1)C1CCCCC1,inconclusive: -48.4%
6,O=C(Nc1ccnn1C1CCN(C/C=C/c2ccccc2)CC1)C1CCCC1,inconclusive: -45.9%
7,O=C(Cn1nc(C(=O)O)c2ccccc2c1=O)Nc1ccc2c(c1)OCO2,inconclusive: -47%
8,CCOc1ccc(-c2[nH]ncc2-c2csc(C)n2)c(O)c1,inactive: -6.94%
9,Cc1ccc(N(CC(=O)NCc2ccc3c(c2)OCO3)S(=O)(=O)c2c(C)noc2C)cc1,inconclusive: -50.8%
10,COc1ccc(NC(=O)c2ccccc2O)c(OC)c1,inactive: 128%
11,COC(=O)c1cn(NC(=O)c2ccc(OC)c([N+](=O)[O-])c2)c(=O)c2ccccc12,inconclusive: -59.1%
12,O=C1C2C3C=CC(C3=C3CCCCC3)C2C(=O)N1Cc1ccccc1 (stereo not drawn),inconclusive: -47.6%
13,COc1cccc(-c2csc(N3CCN(C(=S)Nc4cccc(C)c4)CC3)n2)c1,active: -67.1%
14,Cc1cccc(NC(=O)c2cc3c(=O)n(Cc4ccco4)ccc3nc2C)c1,inconclusive: -43%
15,COc1ccc(C2CCc3cc4c(cc3C2=NOC(C)=O)OCO4)cc1OC (stereo not drawn),inconclusive: -41.6%
16,Cc1c(NC(=O)Cc2ccc(F)cc2)cccc1-c1nc2cccnc2s1,inconclusive: -48.8%
17,Cc1cc(C)c(-c2csc(NC(=O)C3=COCCO3)n2)c(C)c1,inconclusive: -50.1%
18,COC(=O)[C@]1(C)N[C@H](c2ccc(SC3CCCCC3)c(OC)c2)[C@@H]2C(=O)N(C)C(=O)[C@@H]21,inactive: 4.96%
19,CCC(C)[C@H](NC(=O)N1CC(=O)Nc2ccccc21)C(=O)N[C@H](C(=O)O)c1ccccc1 (stereo partly drawn),inactive: -20%
20,CC1CCCCC1Nc1ncnc2sccc12 (stereo not drawn),inconclusive: -57.4%
21,CCC(C)(C)NC(=O)CN(C(=O)CCC(=O)Nc1nccs1)c1ccc2c(c1)OCCO2,inactive: -39.8%

row,Structure (SMILES),"activity change, negative = inhibition"
1,Cn1c(SCC(=O)O)nnc1-c1ccc(NC(=O)c2ccc(Cl)c(Cl)c2)cc1,inconclusive: 0%
2,Cc1cc(C)cc(NC(=O)Nc2ccc(Cl)cn2)c1,inconclusive: -51.1%
3,Cc1cc(C(=O)CN2CCCCC2)c(C)n1-c1ccc(F)cc1,inactive: -4.96%
4,COc1cc(NC(=O)c2cc(Cl)ccc2Cl)ccc1NC(=O)c1cc2ccccc2o1,inconclusive: -56.2%
5,COc1ccccc1-c1nnc(C2CCN(C(=O)c3cccc(Cl)c3)CC2)o1,active: -92.1%
6,COC(=O)c1c(NC(=O)Cc2cccs2)sc2c1CCCC2,inconclusive: -47.1%
7,COc1ccc(C2=Nc3ccccc3N(C(=O)c3ccc(C(F)(F)F)cc3)C2C(=O)Nc2c(C)cccc2C)cc1 (stereo not drawn),inconclusive: -53.8%
8,COc1ccc(S(=O)(=O)N(Cc2ccccc2)c2ccccc2C(=O)Nc2ccccc2C(=O)NCc2ccco2)cc1,inconclusive: -52.9%
9,CCN(CC)C1Oc2cc3c(cc2C(c2cc(OC)c(OC)c(OC)c2)C1C)OCO3 (stereo not drawn),inconclusive: -58.9%
10,COc1cccc(CNC(=O)CSc2nc(=O)[nH]c3c2CCC3)c1,inconclusive: -48.4%
11,O=C(CN1C(=O)NC2(CCc3ccccc32)C1=O)c1ccc(Br)s1 (stereo not drawn),inconclusive: -51.7%
12,O=C(Nc1ccc(N2CCN(c3ccc(C(F)(F)F)cn3)CC2)nc1)c1cccs1,inconclusive: -46.6%
13,Cc1ccc(/C=N/NC(=O)c2n[nH]c3c2CCCC3)cc1,active: -74.8%
14,CCCCc1c(-c2ccccc2OC)ncn1C1CCCC1,active: -94.1%
15,CCOC(=O)c1cc(NC(=O)C2CCCO2)cc(C(=O)OCC)c1 (stereo not drawn),inactive: 9.53%
16,CCCC[N+](CC#Cc1ccccc1)(CCCC)CCCS(=O)(=O)[O-],inconclusive: -55.4%
17,Cc1ccc(C(=O)Nc2nc3nc(C)cc(=O)n3[nH]2)cc1,inconclusive: -41.6%
18,COc1ccc(CCNS(=O)(=O)c2cc(-c3cc(C)no3)ccc2OC)cc1OC,inconclusive: 0%
19,O=C(CCc1ccccc1)N(Cc1cccnc1)c1nc2c(F)cc(F)cc2s1,inconclusive: 0%
20,O=C(Nc1ccc2nc(-c3cccs3)[nH]c2c1)c1ccco1,inconclusive: -56.7%
21,Cc1ccc(C)c(Nc2nn3c(=O)c4ccc(C(=O)NCCC5=CCCCC5)cc4nc3s2)c1,inactive: -3.1%

row,Structure (SMILES),"activity change, negative = inhibition"
1,COCCN1C(=O)N(c2ccc(OC)cc2)C(=O)C1CC(=O)Nc1cccc(F)c1 (stereo not drawn),inconclusive: -41.5%
2,Cc1ccc(CNn2cnnc2SCc2ccc(F)cc2)cc1,inconclusive: -45.9%
3,COc1ccc(CC2SC(=Nc3ccc(F)cc3)NC2=O)cc1 (stereo not drawn),inactive: -38.3%
4,CCOC(=O)c1c(S(=O)(=O)NCC(=O)N2CCN(c3cccc(Cl)c3)CC2)c(C)n(C)c1C,inactive: -21.1%
5,CCOC(=O)N1CCN(S(=O)(=O)c2ccc3c(c2)SC(C)C(=O)N3)CC1 (stereo not drawn),inconclusive: -52.7%
6,COc1ccc(-c2nc3scc(CCNS(=O)(=O)c4c(C)noc4C)n3n2)cc1OC,inactive: 38.4%
7,CC/C(=N\NC(=O)CSc1ncccn1)c1ccc2c(c1)OCCO2,inconclusive: -40.1%
8,CCn1c(/C(C#N)=C(\O)CCc2ccccc2)nc2ccccc21,inconclusive: -47%
9,CCCCCCCC(=O)N1CCN(c2cc3c(cc2F)c(=O)c(C(=O)O)cn3CC)CC1,inconclusive: -54.3%
10,C=CCN1C(=O)CS/C1=N\N=C\c1cccc([N+](=O)[O-])c1,inconclusive: -43.7%
11,CCCCN(Cc1cccs1)S(=O)(=O)c1cc(-c2cc(C)no2)ccc1C,inconclusive: -43.8%
12,COc1cc(OC)nc(Oc2ccccc2C(=O)Oc2ccc(Cl)cc2)n1,inconclusive: -51.5%
13,O=C(C1CC(c2ccc(F)cc2)=NO1)N1CCCc2ccccc21 (stereo not drawn),inactive: 9.36%
14,CCC(C)(C)n1nnnc1C(c1ccc2ncccc2c1)N1CCCCCC1 (stereo not drawn),inconclusive: -40.6%
15,Cc1ccc2nc(NC(=O)CSc3nncc(=O)n3N)sc2c1,inactive: 77.4%
16,Cc1ccccc1CNC(=O)COc1ccccc1,inactive: 17.9%
17,CCN(CC)S(=O)(=O)c1ccc(OC)c(NC(=O)CSCc2c(C)noc2C)c1,inconclusive: -55.8%
18,COCCn1c(N)c(N(Cc2ccccc2)C(=O)c2ccc3ccccc3c2)c(=O)[nH]c1=O,inconclusive: -43.5%
19,CCn1c(CNC(=O)c2ccccc2F)nnc1SCC(=O)NC1CCCCC1C (stereo not drawn),inconclusive: -40.5%
20,Cc1ccc(CN2CCN(CCCn3cnc4c(OCc5ccccc5)ncnc43)CC2)cc1,inconclusive: -58%
21,CC(C)C[C@@]12C(=O)N(c3cccc(Cl)c3)C(=O)N1[C@H](c1ccc(Cl)cc1)[C@@H]1C(=O)N(C3CCCCC3)C(=O)[C@@H]12,inactive: -1.35%

row,Structure (SMILES),"activity change, negative = inhibition"
1,Cc1cc(C)nc(NS(=O)(=O)c2ccc(NC(=O)Nc3ccccc3F)cc2)n1,inconclusive: -49.7%
2,CCOC(=O)c1cccc(-n2nnc3c(sc4nc(C)c(Br)c(C)c43)c2=O)c1,inconclusive: -45.7%
3,Cn1nc(C(=O)NCCOc2ccccc2)c2ccccc2c1=O,inactive: -15.3%
4,CCN1CCN(Cc2ccc(NC(=O)c3ccc(C)c(NC(=O)c4csc(-c5ccncc5)n4)c3)cc2C(F)(F)F)CC1,inconclusive: -40.7%
5,CC(C)=C[C@H]1C[C@H](C)[C@H]2CC[C@H](C)c3c(O[C@@H]4OC[C@@H](O)[C@H](O)C4O)c(O)c(C)c1c32 (stereo partly drawn),inconclusive: -47.4%
6,CC(C)[C@H](NC(=O)c1ccc(C(C)(C)C)cc1)C(=O)N1CCN(Cc2ccc3c(c2)OCO3)CC1,inconclusive: -48.2%
7,Cc1ccc(OC(=O)CCC(=O)Nc2ccc(C)c(C)c2)cc1,inconclusive: -53.4%
8,O=C(NCCc1ccccc1)c1ccc2nccnc2c1,inactive: 61%
9,Cc1cccc(-n2c(Cc3ccccc3)n[nH]c2=S)c1,inconclusive: -40.2%
10,CC1CCN(c2nc3ccc(C(=O)O)cc3s2)CC1,active: -78.3%
11,Cc1ccc(S(=O)(=O)N2C[C@H]3C(=O)C[C@@H](c4ccccc4)N(S(=O)(=O)c4ccc(C)cc4)[C@H]3C[C@H]2c2ccc(Cl)cc2)cc1,active: -85.2%
12,Cc1ccc(S[C@@H](CCN2CC[C@H](C)CCC2=O)c2ccccc2)cc1,inconclusive: -47.1%
13,COc1ccc(C(C)=O)cc1CSc1nc2ccccc2c(=O)n1-c1ccccc1,inconclusive: -47.3%
14,O=C(Nc1ncc(S(=O)(=O)c2ccc([N+](=O)[O-])cc2)s1)c1cccc2ccccc12,inconclusive: -50.3%
15,CCC(=O)Nc1ccccc1C(=O)NC1CCCCC1,active: -110%
16,Cc1c(NC(=O)C(C)n2cc([N+](=O)[O-])cn2)c(=O)n(-c2ccccc2)n1C (stereo not drawn),inconclusive: -49.3%
17,Cc1cc(C)cc(C(=O)Nc2ccc(N3CCN(S(C)(=O)=O)CC3)cc2)c1,inconclusive: -46.9%
18,Cc1ccccc1OCc1n(CC(=O)OC2CC(C)CCC2C(C)C)c2ccccc2[n+]1C (stereo not drawn),active: -96.1%
19,Cn1c(SCC(=O)NCC2CCCO2)nnc1-c1ccco1 (stereo not drawn),inactive: 2.22%
20,O=C(c1coc(=O)c(Br)c1)N1CCCc2ccccc21,active: -75%

# Shown tab-delimited: 5 of the compounds above
row	Structure (SMILES)	activity change, negative = inhibition
1	Cc1cc(C)nc(NS(=O)(=O)c2ccc(NC(=O)Nc3ccccc3F)cc2)n1	inconclusive: -49.7%
4	CCN1CCN(Cc2ccc(NC(=O)c3ccc(C)c(NC(=O)c4csc(-c5ccncc5)n4)c3)cc2C(F)(F)F)CC1	inconclusive: -40.7%
5	CC(C)=C[C@H]1C[C@H](C)[C@H]2CC[C@H](C)c3c(O[C@@H]4OC[C@@H](O)[C@H](O)C4O)c(O)c(C)c1c32 (stereo partly drawn)	inconclusive: -47.4%
9	Cc1cccc(-n2c(Cc3ccccc3)n[nH]c2=S)c1	inconclusive: -40.2%
11	Cc1ccc(S(=O)(=O)N2C[C@H]3C(=O)C[C@@H](c4ccccc4)N(S(=O)(=O)c4ccc(C)cc4)[C@H]3C[C@H]2c2ccc(Cl)cc2)cc1	active: -85.2%
